# Source: PubChem BioAssay AID272 (DTP/NCI, 2004)
# The list is a part of this screen's results and no random one: it is rich in T/C values a quarter to a half above the control, in often repeated tests (any T/C) and in doses without a T/C. Further doses and runs are listed elsewhere. T/C: endpoint of the treated group in % of that of the vehicle group. Schedule codes are those of the source, taken here to give the interval after Q, in days (D) or hours (H), and the number of doses after X. Signs of the kind (2×) say how often a value occurs here. Some T/C values carry the count of animals alive at the toxicity check (mostly the fifth day); where none is given, no animal had died by that day. Some entries hold several experiments; their values stand side by side, smallest first. Some entries give survivors of the animals treated and no T/C: the source holds a T/C of zero for them, seemingly a mark for toxic or unscored doses. Counts of survivors are from the toxicity check (mostly the fifth day) where no day follows; animals may have died later. Where survival is the endpoint, this PubChem deposit counts one and a half times the control or more as active, and values a quarter to a half above the control carry no call in these data; other NCI protocols may use other cut-offs.
# System: Lewis lung carcinoma i.m., BDF1 mice, T/C %
# Test: NCI In Vivo Anticancer Drug Screen. Data for tumor model Lewis Lung Carcinoma (intramuscular) in B6D2F1 (BDF1) mice
# In short: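 Antitumour activity is assessed in transplanted-tumour mice. Endpoint is survival or tumour size, normalised to vehicle-dosed controls (T/C).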
compound,measurement,setting,value
Cc1c(N)nc([C@H](CC(N)=O)NC[C@H](N)C(N)=O)nc1C(=O)N[C@H](C(=O)N[C@H](C)[C@@H](O)[C@H](C)C(=O)N[C@H](C(=O)NCCc1nc(-c2nc(C(=O)NCCC[S+](C)C)cs2)cs1)[C@@H](C)O)C(OC1OC(CO)C(O)C(O)C1OC1OC(CO)C(O)C(OC(N)=O)C1O)c1cnc[nH]1 (some centres undefined),T/C,"T/C endpoint: mean tumor weight, dose: 3.0 mg/kg/injection, schedule: Q01DX009 (ip), vehicle: saline, evaluated on day 10, higher T/C = larger tumour",17 and 223 % of control
same,T/C,"T/C endpoint: mean tumor weight, dose: 3.0 mg/kg/injection, schedule: Q01DX009 (ip), vehicle: saline, evaluated on day 12, higher T/C = larger tumour",34 % of control (2×)
same,survivor count,"T/C endpoint: mean tumor weight, dose: 3.0 mg/kg/injection, schedule: Q01DX009 (ip), vehicle: saline, higher T/C = larger tumour",4 of 8
same,T/C,"T/C endpoint: mean tumor weight, dose: 5.0 mg/kg/injection, schedule: Q01DX009 (ip), vehicle: saline, evaluated on day 10, higher T/C = larger tumour","11, 47, 141 % of control"
same,T/C,"T/C endpoint: mean tumor weight, dose: 5.0 mg/kg/injection, schedule: Q01DX009 (ip), vehicle: saline, evaluated on day 12, higher T/C = larger tumour","11, 18 [7 of 8 alive], 22, 24, 29 % of control"
same,T/C,"T/C endpoint: mean tumor weight, dose: 8.4 mg/kg/injection, schedule: Q01DX009 (ip), vehicle: saline, evaluated on day 10, higher T/C = larger tumour","12, 14, 160 % of control"
same,T/C,"T/C endpoint: mean tumor weight, dose: 8.4 mg/kg/injection, schedule: Q01DX009 (ip), vehicle: saline, evaluated on day 12, higher T/C = larger tumour","5, 6 (2×), 11 [7 of 8 alive], 19 % of control [7 of 8 alive]"
same,T/C,"T/C endpoint: mean tumor weight, dose: 14.0 mg/kg/injection, schedule: Q01DX009 (ip), vehicle: saline, evaluated on day 12, higher T/C = larger tumour",4 [6 of 7 alive] and 4 % of control [7 of 8 alive]
same,T/C,"T/C endpoint: mean tumor weight, dose: 23.0 mg/kg/injection, schedule: Q01DX009 (ip), vehicle: saline, evaluated on day 10, higher T/C = larger tumour","5 [7 of 8 alive], 7 [7 of 8 alive], 97 % of control [6 of 7 alive]"
same,T/C,"T/C endpoint: mean tumor weight, dose: 23.0 mg/kg/injection, schedule: Q01DX009 (ip), vehicle: saline, evaluated on day 12, higher T/C = larger tumour",5 % of control [6 of 8 alive]
same,survivor count,"T/C endpoint: mean tumor weight, dose: 65.0 mg/kg/injection, schedule: Q04DX003 (ip), vehicle: saline, higher T/C = larger tumour",5 of 8
same,survivor count,"T/C endpoint: mean tumor weight, dose: 73.0 mg/kg/injection, schedule: Q01DX001 (ip), vehicle: saline, higher T/C = larger tumour",4 of 8
same,survivor count,"T/C endpoint: mean tumor weight, dose: 80.0 mg/kg/injection, schedule: Q04DX003 (ip), vehicle: saline, higher T/C = larger tumour",0 of 4
same,T/C,"T/C endpoint: median survival time, dose: 1.8 mg/kg/injection, schedule: Q09DX009 (ip), vehicle: saline, evaluated on day 10, higher T/C = longer survival",132 % of control
same,T/C,"T/C endpoint: median survival time, dose: 1.8 mg/kg/injection, schedule: Q09DX009 (ip), vehicle: saline, evaluated on day 50, higher T/C = longer survival",132 % of control
same,T/C,"T/C endpoint: median survival time, dose: 2.0 mg/kg/injection, schedule: Q01DX011 (ip), vehicle: saline, higher T/C = longer survival",129 % of control
same,T/C,"T/C endpoint: median survival time, dose: 2.3 mg/kg/injection, schedule: Q01DX011 (ip), vehicle: saline, higher T/C = longer survival",143 % of control
same,T/C,"T/C endpoint: median survival time, dose: 3.0 mg/kg/injection, schedule: Q01DX009 (ip), vehicle: saline, evaluated on day 11, higher T/C = longer survival",140 % of control
same,T/C,"T/C endpoint: median survival time, dose: 3.0 mg/kg/injection, schedule: Q01DX009 (ip), vehicle: saline, evaluated on day 12, higher T/C = longer survival",134 % of control
same,T/C,"T/C endpoint: median survival time, dose: 3.0 mg/kg/injection, schedule: Q01DX009 (ip), vehicle: saline, evaluated on day 14, higher T/C = longer survival",106 % of control
same,T/C,"T/C endpoint: median survival time, dose: 3.0 mg/kg/injection, schedule: Q01DX009 (ip), vehicle: saline, evaluated on day 43, higher T/C = longer survival",132 % of control
same,T/C,"T/C endpoint: median survival time, dose: 3.0 mg/kg/injection, schedule: Q01DX009 (ip), vehicle: saline, evaluated on day 52, higher T/C = longer survival",106 % of control
same,survivor count,"T/C endpoint: median survival time, dose: 3.0 mg/kg/injection, schedule: Q01DX009 (ip), vehicle: saline, higher T/C = longer survival",4 of 8
same,T/C,"T/C endpoint: median survival time, dose: 3.9 mg/kg/injection, schedule: Q01DX011 (ip), vehicle: saline, higher T/C = longer survival",131 % of control
same,T/C,"T/C endpoint: median survival time, dose: 4.0 mg/kg/injection, schedule: Q01DX009 (ip), vehicle: water, evaluated on day 30, higher T/C = longer survival",119 % of control
same,T/C,"T/C endpoint: median survival time, dose: 4.0 mg/kg/injection, schedule: Q01DX009 (ip), vehicle: water, evaluated on day 45, higher T/C = longer survival",117 and 124 % of control
same,T/C,"T/C endpoint: median survival time, dose: 4.0 mg/kg/injection, schedule: Q01DX009 (ip), vehicle: water, evaluated on day 60, higher T/C = longer survival",135 % of control
same,T/C,"T/C endpoint: median survival time, dose: 4.0 mg/kg/injection, schedule: Q01DX011 (ip), vehicle: saline, higher T/C = longer survival",134 and 144 % of control
same,T/C,"T/C endpoint: median survival time, dose: 5.0 mg/kg/injection, schedule: Q01DX009 (ip), vehicle: saline, evaluated on day 10, higher T/C = longer survival",106 % of control
same,T/C,"T/C endpoint: median survival time, dose: 5.0 mg/kg/injection, schedule: Q01DX009 (ip), vehicle: saline, evaluated on day 11, higher T/C = longer survival",117 % of control
same,T/C,"T/C endpoint: median survival time, dose: 5.0 mg/kg/injection, schedule: Q01DX009 (ip), vehicle: saline, evaluated on day 12, higher T/C = longer survival",103 and 131 % of control
same,T/C,"T/C endpoint: median survival time, dose: 5.0 mg/kg/injection, schedule: Q01DX009 (ip), vehicle: saline, evaluated on day 14, higher T/C = longer survival",132 % of control
same,T/C,"T/C endpoint: median survival time, dose: 5.0 mg/kg/injection, schedule: Q01DX009 (ip), vehicle: saline, evaluated on day 41, higher T/C = longer survival",104 % of control
same,T/C,"T/C endpoint: median survival time, dose: 5.0 mg/kg/injection, schedule: Q01DX009 (ip), vehicle: saline, evaluated on day 43, higher T/C = longer survival",102 % of control
same,T/C,"T/C endpoint: median survival time, dose: 5.0 mg/kg/injection, schedule: Q01DX009 (ip), vehicle: saline, evaluated on day 45, higher T/C = longer survival",130 % of control [7 of 8 alive]
same,T/C,"T/C endpoint: median survival time, dose: 5.0 mg/kg/injection, schedule: Q01DX009 (ip), vehicle: saline, evaluated on day 48, higher T/C = longer survival",143 and 165 % of control
same,T/C,"T/C endpoint: median survival time, dose: 5.0 mg/kg/injection, schedule: Q01DX009 (ip), vehicle: saline, evaluated on day 52, higher T/C = longer survival",132 % of control
same,T/C,"T/C endpoint: median survival time, dose: 6.0 mg/kg/injection, schedule: Q01DX011 (ip), vehicle: saline, higher T/C = longer survival",140 % of control
same,T/C,"T/C endpoint: median survival time, dose: 8.0 mg/kg/injection, schedule: Q01DX009 (ip), vehicle: saline, higher T/C = longer survival",145 % of control
same,T/C,"T/C endpoint: median survival time, dose: 8.0 mg/kg/injection, schedule: Q01DX009 (ip), vehicle: water, evaluated on day 30, higher T/C = longer survival",120 % of control
same,T/C,"T/C endpoint: median survival time, dose: 8.0 mg/kg/injection, schedule: Q01DX009 (ip), vehicle: water, evaluated on day 45, higher T/C = longer survival",133 and 189 % of control
same,T/C,"T/C endpoint: median survival time, dose: 8.0 mg/kg/injection, schedule: Q01DX009 (ip), vehicle: water, evaluated on day 60, higher T/C = longer survival",124 % of control
same,T/C,"T/C endpoint: median survival time, dose: 8.0 mg/kg/injection, schedule: Q01DX011 (ip), vehicle: saline, higher T/C = longer survival",131 % of control [9 of 10 alive]
same,T/C,"T/C endpoint: median survival time, dose: 8.4 mg/kg/injection, schedule: Q01DX009 (ip), vehicle: saline, evaluated on day 10, higher T/C = longer survival",135 % of control
same,T/C,"T/C endpoint: median survival time, dose: 8.4 mg/kg/injection, schedule: Q01DX009 (ip), vehicle: saline, evaluated on day 11, higher T/C = longer survival",160 % of control
same,T/C,"T/C endpoint: median survival time, dose: 8.4 mg/kg/injection, schedule: Q01DX009 (ip), vehicle: saline, evaluated on day 12, higher T/C = longer survival",143 and 151 % of control
same,T/C,"T/C endpoint: median survival time, dose: 8.4 mg/kg/injection, schedule: Q01DX009 (ip), vehicle: saline, evaluated on day 14, higher T/C = longer survival",146 % of control
same,T/C,"T/C endpoint: median survival time, dose: 8.4 mg/kg/injection, schedule: Q01DX009 (ip), vehicle: saline, evaluated on day 41, higher T/C = longer survival",136 % of control
same,T/C,"T/C endpoint: median survival time, dose: 8.4 mg/kg/injection, schedule: Q01DX009 (ip), vehicle: saline, evaluated on day 45, higher T/C = longer survival",144 % of control
